In series [1] the test system is CD8 (T-cell surface marker). The series can be described thus: NIR-II fluorescence cell imaging. Conditions: CD8+ T cells, 30 min, QD conjugate; 3'-SH, coupled to DSPE-PEG-Mal on PbS/CdS QDs; live-cell binding, 30 min incubation; protein on the cell surface; label: PbS/CdS QD; single-stranded DNA.
In series [2] the target is PD1 (programmed death-1) (UniProt Q02242). The series can be described thus: flow cytometry. As to conditions: CD8+ T cells, 30 min, live-cell binding, 30 min incubation, protein on the cell surface, label: 5'-FAM, single-stranded DNA. (In general: In flow cytometry, cells or beads pass a laser one at a time.)
For series [3] the target is unchanged. The series can be described thus: NIR-II fluorescence cell imaging. As to conditions: naive vs activated T cells, 30 min; live-cell binding, 30 min incubation; protein on the cell surface; label: 5'-ICG; single-stranded DNA.

The chains behind the UniProt entries cited, without tags or fusion partners. Residues count along the entry.
UniProt Q02242, 25-288: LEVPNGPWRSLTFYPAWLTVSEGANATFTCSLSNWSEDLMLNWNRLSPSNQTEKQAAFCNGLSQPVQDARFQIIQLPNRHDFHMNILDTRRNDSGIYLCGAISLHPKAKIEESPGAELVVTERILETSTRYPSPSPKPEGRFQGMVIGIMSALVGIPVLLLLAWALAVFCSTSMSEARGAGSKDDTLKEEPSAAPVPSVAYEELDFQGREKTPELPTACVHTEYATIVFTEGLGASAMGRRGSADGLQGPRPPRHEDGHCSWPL

For at least one entry, the source does not settle the construct or the ends of the probe. At least one result comes from cells or an extract, where the contact may be indirect. For some of these results: The comparison behind a weaker result is the experiment's own reference, which may not be listed here. For some of these results: At least one verdict rests on a figure or table, not on a statement of the authors.

Consider “CCAGAGTGACGCAGCAACAGAGGTGTAGAAGTACACGTGAACAAGCTTGAAATTGTCTCCGACAGAGGTGGACACGGTGGCTTTTAGT [Apt-CD8-SH (QDs@Apt-CD8)]”, for which, in series [1], the binding result is on record as “binds”.

In the case of “TTTTTAAGTAATGTATTTAAATTGCGAACTACTACTCTCTCTATATATTGCGAACTACTACTCTCTCTATATTAAAGGAAGGATCTCA [Apt-random-FAM]”, the binding result in the series with PD1 (programmed death-1) [2] (significantly lower than Apt-PD1) was “binds more weakly”.

As for “GACGATAGCGGTGACGGCACAGACGGTACAGTTCCCGTCCCTGCACTACACGTATGCCGCTTCCGTCCGTCGCTC [Apt-PD1-FAM]”, the binding result in the series with PD1 (programmed death-1) [2] (no binding to CT26 or CL2 cells) is reported as “binds”.

In the case of “GACGATAGCGGTGACGGCACAGACGGTACAGTTCCCGTCCCTGCACTACACGTATGCCGCTTCCGTCCGTCGCTC [ICG-Apt-PD1]”, the binding result in the series with PD1 (programmed death-1) [3] is “binds”.

For the origin of these results see article PMC11984393.
